Results from PMC7819943, “Rice protein-binding microarrays: a tool to detect cis-acting elements near promoter regions in rice”.
The list shows a part of the results.

Target: T1, OsSMF1 (Oryza sativa, UniProt Q6ZLB0 1-436)
T1 sequence: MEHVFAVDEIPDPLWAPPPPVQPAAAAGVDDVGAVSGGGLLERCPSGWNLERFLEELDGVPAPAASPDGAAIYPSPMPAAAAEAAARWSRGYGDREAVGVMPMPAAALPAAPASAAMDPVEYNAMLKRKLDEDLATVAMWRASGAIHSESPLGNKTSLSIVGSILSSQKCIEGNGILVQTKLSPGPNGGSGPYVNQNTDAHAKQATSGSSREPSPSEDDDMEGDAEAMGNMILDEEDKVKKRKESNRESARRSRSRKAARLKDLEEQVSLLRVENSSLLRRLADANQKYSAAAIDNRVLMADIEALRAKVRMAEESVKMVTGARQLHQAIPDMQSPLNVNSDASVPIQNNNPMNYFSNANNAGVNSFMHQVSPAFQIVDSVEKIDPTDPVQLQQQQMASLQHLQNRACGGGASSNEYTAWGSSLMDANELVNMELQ
Assay: protein-binding microarray (RPBM); PBS, 2% BSA, 51.3 ng/ul salmon testes DNA, 50 uM zinc acetate, 200 nM TF, 25 C, 1 h; high values mean tight binding
Conditions: protein: recombinant; tags: N-terminal polyhistidine and DsRed monomer fusion (pET32a); chain copies: 2; label: CyDye5-dUTP incorporated in the synthesized complementary strand; 3' TTTTT single-stranded linker to array surface; dsDNA, one strand shown
Summary of the method: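 Transcription factors, each fused N-terminally to a polyhistidine tag and DsRed, were expressed in E. coli BL21-CodonPlus and purified on Ni–NTA. A custom Agilent array was made double-stranded by primer extension with Cy5-dUTP and blocked with 2% BSA. It was incubated with 200 nM protein in PBS, 2% BSA, salmon testes DNA and 50 µM zinc acetate at 25 °C for 1 h, then washed. The binding signal is per-feature fluorescence intensity (arbitrary units) read on an Axon 4000B scanner.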

Row | Sequence | binding signal
1 | GGCGGCCGGCGGCAGTGGCGCAGAGGCGTCCGGCGGCGGCCGGAGTCACCTAGTGCAG | 14900 fluorescence intensity (a.u.)
2 | TTCATGGTTACCGCGGTTAACACGTGGTAACCGTACTTACCGGAGTCACCTAGTGCAG | 3550 fluorescence intensity (a.u.)
3 | TTGCAGGTTTGCAGCTACAGTAGTAGCAGACTGCCATTTTCGGAGTCACCTAGTGCAG | 3470 fluorescence intensity (a.u.)
4 | TCTGCGCCGCATGCCGCCACGCGCGCGACACACGCTCGCTCGGAGTCACCTAGTGCAG | 4540 fluorescence intensity (a.u.)
5 | GGCGTTGGGCCGGGCGCAACGGCGGGAGAGTCGACGCCGCCGGAGTCACCTAGTGCAG | 19500 fluorescence intensity (a.u.)
6 | CCGCTCGCCGTGCCGCGACCACGTGTGGCGCCCGCTGCCTCGGAGTCACCTAGTGCAG | 5580 fluorescence intensity (a.u.)
7 | GAATCTCAGCCGCGTCATCCACCTCATTGCTCTTATCCGACGGAGTCACCTAGTGCAG | 16800 fluorescence intensity (a.u.)
8 | GGTCTGCCGTTCTTTAGTCTGACTCGAATAGACAGGCTCGCGGAGTCACCTAGTGCAG | 3260 fluorescence intensity (a.u.)
9 | GAGTCTTGAGAACCTTGACGTCTCGAGCTCGAGCCGTACTCGGAGTCACCTAGTGCAG | 3560 fluorescence intensity (a.u.)
10 | TAAACCACAGCGTCCTGGAATTGTGAGTCATGCGTGATGCCGGAGTCACCTAGTGCAG | 8290 fluorescence intensity (a.u.)
11 | AACATCATAACAAATACTATTGAAGGGGTGGCCCAACTACCGGAGTCACCTAGTGCAG | 22600 fluorescence intensity (a.u.)
12 | GCTTTCCTCTTGCTACACTCCTTTTCTCCAAGTCATACACCGGAGTCACCTAGTGCAG | 4100 fluorescence intensity (a.u.)
13 | TAGGGTTCGGGTTCTCTCTAGGATCACCTAGATTTAGATCCGGAGTCACCTAGTGCAG | 29500 fluorescence intensity (a.u.)
14 | TTGTAGAACGTGACAAAGTCAGTGGCAAATCGTAGACGTGCGGAGTCACCTAGTGCAG | 3180 fluorescence intensity (a.u.)
15 | TTCTCTTCTCATCTGCTTGCAGCAGCGGTAGACAGTGCATCGGAGTCACCTAGTGCAG | 28500 fluorescence intensity (a.u.)
16 | CACCACCAACACCACCCGACCCAATCACAAACTGTGTGTTCGGAGTCACCTAGTGCAG | 4740 fluorescence intensity (a.u.)
17 | TTACATACGGATTATGTAATTTGTTTTGTTATTAATCTACCGGAGTCACCTAGTGCAG | 3160 fluorescence intensity (a.u.)
18 | ACTCCTCCGCTCGCTTTGCGCCATCGCCGCCACCGACGCCCGGAGTCACCTAGTGCAG | 3950 fluorescence intensity (a.u.)
19 | AGCATTTCTTCTCTTTGCAACTGATGCTGAACCACACCACCGGAGTCACCTAGTGCAG | 3230 fluorescence intensity (a.u.)
20 | CCTGCCTGTCACGCTACGATATTTAACGTGGCTGTTGGCCCGGAGTCACCTAGTGCAG | 5510 fluorescence intensity (a.u.)
21 | GTCTTCTCGTGTACACGCCGTACATATCAACTAGCAAATTCGGAGTCACCTAGTGCAG | 3410 fluorescence intensity (a.u.)
22 | AGTGGTGGGAGAACCTAGCAAACACGTCCGCTGTCCCAGACGGAGTCACCTAGTGCAG | 4860 fluorescence intensity (a.u.)
23 | GCGATGATTGGCTTGCACTCTGCCACGTAGGATCCGCTCCCGGAGTCACCTAGTGCAG | 35700 fluorescence intensity (a.u.)
24 | ACCCTTCCGCGAACCGCGGCGGTGAGAGAGGAAGACGTGGCGGAGTCACCTAGTGCAG | 5450 fluorescence intensity (a.u.)
25 | GACGACCTTGGCACCCAGCTTCCGTCACTCGCTCGCCGCGCGGAGTCACCTAGTGCAG | 3220 fluorescence intensity (a.u.)
26 | TGCGTGTATAACAGGTGGGACCAAGTATTAATAGTATAGTCGGAGTCACCTAGTGCAG | 25900 fluorescence intensity (a.u.)
27 | GCTCTCACTAGGGCCGACGTGGCCGGCGCCAGGCTTCGTCCGGAGTCACCTAGTGCAG | 9140 fluorescence intensity (a.u.)

From no. 22 to 23, as listed above:
Row | Sequence | binding signal
22 | AGTGGTGGGAGAACCTAGCAAACACGTCCGCTGTCCCAGACGGAGTCACCTAGTGCAG | 4860 fluorescence intensity (a.u.)
23 | GCGATGATTGGCTTGCACTCTGCCACGTAGGATCCGCTCCCGGAGTCACCTAGTGCAG | 35700 fluorescence intensity (a.u.)

(list continues)

Row | Sequence | binding signal
28 | AGCTGCGACTGACCTGGACATGTATTCAACATTCGATCCACGGAGTCACCTAGTGCAG | 3560 fluorescence intensity (a.u.)
29 | CGCGTTCGTCGTGCTGTCGTGCGTCACCGCCGGCATGGGCCGGAGTCACCTAGTGCAG | 10800 fluorescence intensity (a.u.)
30 | GATATTTCTCTTTATCATGGTCACCGTTCATCATGAGCAACGGAGTCACCTAGTGCAG | 25000 fluorescence intensity (a.u.)
31 | CCTTCCGTTCAGGATTGTTCATGGCCACGCAGCCGAAGATCGGAGTCACCTAGTGCAG | 3210 fluorescence intensity (a.u.)
32 | TTTAGTAATTGGTAGAGCTCAAATTTCTAAATTTAACTTCCGGAGTCACCTAGTGCAG | 3160 fluorescence intensity (a.u.)
33 | GAAGAGCTCGAGTCCCAGGTTGACGCACGACTCCGCCGTCCGGAGTCACCTAGTGCAG | 4460 fluorescence intensity (a.u.)
34 | GATCATGAGCTCCACGGCGGCCAACGTGGCGGCGCCGACGCGGAGTCACCTAGTGCAG | 8640 fluorescence intensity (a.u.)
35 | TCGGAAGCCAAGCCCCAGGAAAGAGGAACGCACGAGCAGCCGGAGTCACCTAGTGCAG | 13100 fluorescence intensity (a.u.)
36 | CTTCACACGCACGTGCCACATCAACTAAGCTAGTACCTACCGGAGTCACCTAGTGCAG | 5360 fluorescence intensity (a.u.)
37 | ATTAATATCGTTATGATTTGATACGATTTGGTCTTCCCTTCGGAGTCACCTAGTGCAG | 35800 fluorescence intensity (a.u.)
38 | GACAAACCATCCCAATTCCAATCAATCATGGGCAAATCATCGGAGTCACCTAGTGCAG | 3400 fluorescence intensity (a.u.)
39 | CTTAACTTTGGGACCCACATGTCATGCTCTCAAATTTAGACGGAGTCACCTAGTGCAG | 3460 fluorescence intensity (a.u.)
40 | TACGTTAAAATTCGTGTGGAGACGTGTCACTCAAGATGACCGGAGTCACCTAGTGCAG | 8520 fluorescence intensity (a.u.)
41 | CCGTCCGGTGACTGACGTACGTGGATATGTTTTCATTTGACGGAGTCACCTAGTGCAG | 4020 fluorescence intensity (a.u.)
42 | GTACTCAGCATACTGGACGGCAGAAACAGCCGTGGCACTGCGGAGTCACCTAGTGCAG | 3680 fluorescence intensity (a.u.)
43 | GTCGGCTGAGGTGTGAGTTATCGTCTGTGCCGCGGGTCCACGGAGTCACCTAGTGCAG | 3450 fluorescence intensity (a.u.)
44 | AGATATTGTTTTGCCATTTTCTCTGCTGACGATGACGATGCGGAGTCACCTAGTGCAG | 5400 fluorescence intensity (a.u.)
45 | ATATTCAGCAACGCCTGCTCACACAGTGACACAGATGATCCGGAGTCACCTAGTGCAG | 4290 fluorescence intensity (a.u.)
46 | ATGCCCATGCAAGGAAAACGCCCATCCAACCACGGTGCACCGGAGTCACCTAGTGCAG | 3570 fluorescence intensity (a.u.)
47 | CCGGCCAGTGAAGGGGATGGTGACTGGTGTCTGGTGAGTGCGGAGTCACCTAGTGCAG | 3570 fluorescence intensity (a.u.)
48 | TGTGCTAAGAAAATAGATTATATCATTGTCATCCAAATTTCGGAGTCACCTAGTGCAG | 3170 fluorescence intensity (a.u.)
49 | GCTCGACTCGCTGTTGTTGACGGTGAGGAGGGCGCTTGCCCGGAGTCACCTAGTGCAG | 3470 fluorescence intensity (a.u.)
50 | CTCTTTATTCGGGTACCACTCTCGATGCTGCACCGTGACGCGGAGTCACCTAGTGCAG | 3270 fluorescence intensity (a.u.)
51 | TATATATATATATGACGTATGTATTTCATGGTGTAATAGCCGGAGTCACCTAGTGCAG | 4860 fluorescence intensity (a.u.)
52 | ATGAAGCGCCGCGTTGCAGGCTGCAGGAGACGTCAGCAGTCGGAGTCACCTAGTGCAG | 6660 fluorescence intensity (a.u.)
53 | TGATCAAAACAGGATAGCTGCATCACCACGTCAACAACCACGGAGTCACCTAGTGCAG | 7220 fluorescence intensity (a.u.)
54 | ATGTGGGGAAGCCCTGGAACTGCTGTACCAGGTACGCAATCGGAGTCACCTAGTGCAG | 4740 fluorescence intensity (a.u.)

2 records picked at random from those above:
Row | Sequence | binding signal
14 | TTGTAGAACGTGACAAAGTCAGTGGCAAATCGTAGACGTGCGGAGTCACCTAGTGCAG | 3180 fluorescence intensity (a.u.)
30 | GATATTTCTCTTTATCATGGTCACCGTTCATCATGAGCAACGGAGTCACCTAGTGCAG | 25000 fluorescence intensity (a.u.)
